# According to the supplement of paper PMC8728848:
# The list shows a part of the results.
# Experiments:
# Assay in all cases: glycan array binding signal (z-score within array); higher = stronger binding
# Settings in all cases: glycan notation: IUPAC condensed, linker removed
# [1] = molecular target: Neu5Ac(a2-6)Gal(b1-4)GlcNAc(b1-2)Man(a1-3)[Man(a1-6)]Man(b1-4)GlcNAc(b1-4)GlcNAc
# Outline: (§1)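 From the Consortium for Functional Glycomics database, 3228 arrays were curated, keeping only those whose protein sequence was available. Binding is given as a within-array Z-score averaged across arrays sharing a protein sequence and across linkers. Negative Z-scores can be read as non-binding.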
# [2] = molecular target: Neu5Ac(a2-6)Gal(b1-4)GlcNAc(b1-2)Man(a1-3)[Neu5Ac(a2-3)Gal(b1-4)GlcNAc(b1-2)Man(a1-6)]Man(b1-4)GlcNAc(b1-4)GlcNAc
# Outline: as §1
# [3] = molecular target: Neu5Ac(a2-6)Gal(b1-4)GlcNAc(b1-2)Man(a1-3)[Neu5Ac(a2-6)Gal(b1-4)GlcNAc(b1-2)Man(a1-6)]Man(b1-4)GlcNAc(b1-4)GlcNAc
# Outline: as §1
# [4] = molecular target: Neu5Ac(a2-6)Gal(b1-4)GlcNAc(b1-2)Man(a1-3)[Neu5Ac(a2-6)Gal(b1-4)GlcNAc(b1-2)Man(a1-6)]Man(b1-4)GlcNAc(b1-4)[Fuc(a1-6)]GlcNAc
# Outline: as §1
# [5] = molecular target: Neu5Ac(a2-6)Gal(b1-4)GlcNAc(b1-2)Man(a1-6)Man(b1-4)GlcNAc(b1-4)GlcNAc
# Outline: as §1
# [6] = molecular target: Neu5Ac(a2-6)Gal(b1-4)GlcNAc(b1-2)Man(a1-6)[Gal(b1-4)GlcNAc(b1-2)Man(a1-3)]Man(b1-4)GlcNAc(b1-4)GlcNAc
# Outline: as §1
# [7] = molecular target: Neu5Ac(a2-6)Gal(b1-4)GlcNAc(b1-2)Man(a1-6)[GlcNAc(b1-2)Man(a1-3)]Man(b1-4)GlcNAc(b1-4)GlcNAc
# Outline: as §1
# [8] = molecular target: Neu5Ac(a2-6)Gal(b1-4)GlcNAc(b1-2)Man(a1-6)[Man(a1-3)]Man(b1-4)GlcNAc(b1-4)GlcNAc
# Outline: as §1
# [9] = molecular target: Neu5Ac(a2-6)Gal(b1-4)GlcNAc(b1-2)[Neu5Ac(a2-6)Gal(b1-4)GlcNAc(b1-4)]Man(a1-3)[GlcNAc(b1-4)][Neu5Ac(a2-6)Gal(b1-4)GlcNAc(b1-2)[Neu5Ac(a2-6)Gal(b1-4)GlcNAc(b1-6)]Man(a1-6)]Man(b1-4)GlcNAc(b1-4)GlcNAc
# Outline: as §1
# [10] = molecular target: Neu5Ac(a2-6)Gal(b1-4)GlcNAc(b1-2)[Neu5Ac(a2-6)Gal(b1-4)GlcNAc(b1-4)]Man(a1-3)[GlcNAc(b1-4)][Neu5Ac(a2-6)Gal(b1-4)GlcNAc(b1-4)Man(a1-6)]Man(b1-4)GlcNAc(b1-4)GlcNAc
# Outline: as §1
# [11] = molecular target: Neu5Ac(a2-6)Gal(b1-4)GlcNAc(b1-2)[Neu5Ac(a2-6)Gal(b1-4)GlcNAc(b1-6)]Man(a1-6)[Neu5Ac(a2-6)Gal(b1-4)GlcNAc(b1-2)Man(a1-3)][GlcNAc(b1-4)]Man(b1-4)GlcNAc(b1-4)GlcNAc
# Outline: as §1
# [12] = molecular target: Neu5Ac(a2-6)Gal(b1-4)GlcNAc(b1-3)Gal(b1-3)GlcNAc
# Outline: as §1
# [13] = molecular target: Neu5Ac(a2-6)Gal(b1-4)GlcNAc(b1-3)Gal(b1-4)GlcNAc
# Outline: as §1
# [14] = molecular target: Neu5Ac(a2-6)Gal(b1-4)GlcNAc(b1-3)Gal(b1-4)GlcNAc(b1-2)Man(a1-3)[Neu5Ac(a2-6)Gal(b1-4)GlcNAc(b1-3)Gal(b1-4)GlcNAc(b1-2)Man(a1-6)]GalNAc
# Outline: as §1
# [15] = molecular target: Neu5Ac(a2-6)Gal(b1-4)GlcNAc(b1-3)Gal(b1-4)GlcNAc(b1-3)Gal(b1-4)GlcNAc
# Outline: as §1
# [16] = molecular target: Neu5Ac(a2-6)Gal(b1-4)GlcNAc(b1-3)Gal(b1-4)GlcNAc(b1-3)Gal(b1-4)GlcNAc(b1-2)Man(a1-3)[Neu5Ac(a2-6)Gal(b1-4)GlcNAc(b1-3)Gal(b1-4)GlcNAc(b1-3)Gal(b1-4)GlcNAc(b1-2)Man(a1-6)]GalNAc
# Outline: as §1
# [17] = molecular target: Neu5Ac(a2-6)Gal(b1-4)GlcNAc(b1-3)Gal(b1-4)GlcNAc(b1-3)GalNAc
# Outline: as §1
# [18] = molecular target: Neu5Ac(a2-6)Gal(b1-4)GlcNAc(b1-3)Gal(b1-4)GlcNAc(b1-3)[Neu5Ac(a2-6)Gal(b1-4)GlcNAc(b1-3)Gal(b1-4)GlcNAc(b1-6)]GalNAc
# Outline: as §1
# [19] = molecular target: Neu5Ac(a2-6)Gal(b1-4)GlcNAc(b1-3)Gal(b1-4)GlcNAc(b1-6)[Gal(b1-3)]GalNAc
# Outline: as §1
# [20] = molecular target: Neu5Ac(a2-6)Gal(b1-4)GlcNAc(b1-3)Gal(b1-4)[Fuc(a1-3)]GlcNAc(b1-3)Gal(b1-4)[Fuc(a1-3)]GlcNAc
# Outline: as §1
# [21] = molecular target: Neu5Ac(a2-6)Gal(b1-4)GlcNAc(b1-3)GalNAc
# Outline: as §1
# [22] = molecular target: Neu5Ac(a2-6)Gal(b1-4)GlcNAc(b1-3)[Neu5Ac(a2-6)Gal(b1-4)GlcNAc(b1-6)]GalNAc
# Outline: as §1
# [23] = molecular target: Neu5Ac(a2-6)Gal(b1-4)GlcNAc(b1-6)GalNAc
# Outline: as §1
# [24] = molecular target: Neu5Ac(a2-6)Gal(b1-4)GlcNAc(b1-6)[Gal(b1-3)GlcNAc(b1-3)]Gal(b1-4)Glc
# Outline: as §1
# [25] = molecular target: Neu5Ac(a2-6)Gal(b1-4)GlcNAc(b1-6)[Gal(b1-3)]GalNAc
# Outline: as §1
# [26] = molecular target: Neu5Ac(a2-6)Gal(b1-4)GlcNAc6S
# Outline: as §1
# Neu5Ac(a2-6)GalNAc = molecular target: Neu5Ac(a2-6)GalNAc
# Outline: as §1
# [27] = molecular target: Neu5Ac(a2-6)GalNAc(b1-4)GlcNAc
# Outline: as §1
# [28] = molecular target: Neu5Ac(a2-6)GalNAc(b1-4)GlcNAc6S
# Outline: as §1
# [29] = molecular target: Neu5Ac(a2-6)GlcNAc(b1-4)GlcNAc
# Outline: as §1
# [30] = molecular target: Neu5Ac(a2-6)GlcNAc(b1-4)GlcNAc(b1-4)GlcNAc
# Outline: as §1
binder,measurement,setting,value
Epa3to2 (Candida glabrata) (protein) MGSSHHHHHHSSGLVPRGSHMKRELSSQNPFGYPIGCSPQDVAIIPGLTMELYSYPIVSGTPPNCYDASYVDPEYPRTGYLKRKMVGKSTGVTGNLNYKYSVEKACMVKYGNLPAGYNYNEPLTVSNFTMILYGYFKAQTTGLHTFFVNADDLLYINFGAGNAFDCCKREDSKTKLGEYVAYDIWHVDSSKNKVSLFLEKDLYYPIRMFFNNRDNNSSLDLSFSVNGATDQISDFSGYLYSVPDQPDTCPAHIGYDTTCR,glycan array binding signal (z-score),[1],1.16
same,glycan array binding signal (z-score),[2],0.139
same,glycan array binding signal (z-score),[3],-0.587
same,glycan array binding signal (z-score),[4],0.435
same,glycan array binding signal (z-score),[5],0.353
same,glycan array binding signal (z-score),[6],-0.632
same,glycan array binding signal (z-score),[7],1.21
same,glycan array binding signal (z-score),[8],-1.41
same,glycan array binding signal (z-score),[9],-0.941
same,glycan array binding signal (z-score),[10],1.14
same,glycan array binding signal (z-score),[11],-0.053
same,glycan array binding signal (z-score),[12],1.5
same,glycan array binding signal (z-score),[13],0.051
same,glycan array binding signal (z-score),[14],-1.11
same,glycan array binding signal (z-score),[15],-0.275
same,glycan array binding signal (z-score),[16],0.127
same,glycan array binding signal (z-score),[17],0.077
same,glycan array binding signal (z-score),[18],0.333
same,glycan array binding signal (z-score),[19],-0.986
same,glycan array binding signal (z-score),[20],0.521
same,glycan array binding signal (z-score),[21],0.516
same,glycan array binding signal (z-score),[22],1.36
same,glycan array binding signal (z-score),[23],-0.131
same,glycan array binding signal (z-score),[24],0.007
same,glycan array binding signal (z-score),[25],-0.973
same,glycan array binding signal (z-score),[26],-0.651
same,glycan array binding signal (z-score),Neu5Ac(a2-6)GalNAc,0.437
same,glycan array binding signal (z-score),[27],-0.698
same,glycan array binding signal (z-score),[28],-1.08
same,glycan array binding signal (z-score),[29],-0.614
same,glycan array binding signal (z-score),[30],-1.01

# 2 records picked at random from those above, as already listed:
binder,measurement,setting,value
Epa3to2 (Candida glabrata) (protein) MGSSHHHHHHSSGLVPRGSHMKRELSSQNPFGYPIGCSPQDVAIIPGLTMELYSYPIVSGTPPNCYDASYVDPEYPRTGYLKRKMVGKSTGVTGNLNYKYSVEKACMVKYGNLPAGYNYNEPLTVSNFTMILYGYFKAQTTGLHTFFVNADDLLYINFGAGNAFDCCKREDSKTKLGEYVAYDIWHVDSSKNKVSLFLEKDLYYPIRMFFNNRDNNSSLDLSFSVNGATDQISDFSGYLYSVPDQPDTCPAHIGYDTTCR,glycan array binding signal (z-score),[7],1.21
same,glycan array binding signal (z-score),[14],-1.11
